Some of the results follow.
Experiments:
Experiment in all cases: log2 fold change, soluble protein after heating vs DMSO (PISA); higher = thermal stabilisation; K562 lysate, 10 uM; active = over 0.2 and 3.5 SD of the protein, either way, in both replicates (recomputed)
[1] = compound: CCn1c(C(=O)N(C2CC2)C2CC2)cc2c3c(ncn3C)c(Nc3cc(C)n(C)n3)nc21
Procedure, shortened: (§1)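 Dounce homogenisation of K562 pellets in PBS pH 7.4 with 1 mM MgCl2 produced a crude extract, used at 1 mg/mL protein. Exposure to 10 μM compound lasted 30 min, and aliquots were then heated for 3 min across 48°C-58°C, pooled and brought to 0.5% NP-40 at 4°C. The supernatant after 21,000xg for 90 min was quantified by TMTpro 16plex LC-MS/MS with channel sums equalised. Duplicate values are given as log-two fold change in thermal stability relative to solvent controls.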

By UniProt entry, the sequences of proteins in these tests, tags left out. Where a name states a change or a piece, a line headed by the entry shows the natural chain unless it says otherwise.
UniProt P54108: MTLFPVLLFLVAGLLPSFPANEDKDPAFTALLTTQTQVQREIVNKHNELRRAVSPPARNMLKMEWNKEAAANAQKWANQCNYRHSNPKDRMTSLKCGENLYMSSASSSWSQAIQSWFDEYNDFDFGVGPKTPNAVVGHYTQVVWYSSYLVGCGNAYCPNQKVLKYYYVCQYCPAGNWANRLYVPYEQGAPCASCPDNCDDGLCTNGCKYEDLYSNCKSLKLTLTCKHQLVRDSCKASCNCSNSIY
UniProt Q9H175: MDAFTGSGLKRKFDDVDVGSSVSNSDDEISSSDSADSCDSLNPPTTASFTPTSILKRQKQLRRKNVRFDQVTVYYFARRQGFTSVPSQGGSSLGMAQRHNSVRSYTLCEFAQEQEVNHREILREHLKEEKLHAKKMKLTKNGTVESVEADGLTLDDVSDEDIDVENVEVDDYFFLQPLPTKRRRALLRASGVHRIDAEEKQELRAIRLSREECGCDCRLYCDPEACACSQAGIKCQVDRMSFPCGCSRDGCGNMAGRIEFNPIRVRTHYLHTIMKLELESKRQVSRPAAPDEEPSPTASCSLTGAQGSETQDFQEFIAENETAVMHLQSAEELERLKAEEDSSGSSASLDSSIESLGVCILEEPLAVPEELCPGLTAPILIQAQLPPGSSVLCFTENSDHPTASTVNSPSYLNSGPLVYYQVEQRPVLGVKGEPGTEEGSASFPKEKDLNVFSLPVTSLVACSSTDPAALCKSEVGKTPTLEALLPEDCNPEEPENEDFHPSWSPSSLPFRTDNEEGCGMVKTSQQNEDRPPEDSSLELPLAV
UniProt Q8NI51: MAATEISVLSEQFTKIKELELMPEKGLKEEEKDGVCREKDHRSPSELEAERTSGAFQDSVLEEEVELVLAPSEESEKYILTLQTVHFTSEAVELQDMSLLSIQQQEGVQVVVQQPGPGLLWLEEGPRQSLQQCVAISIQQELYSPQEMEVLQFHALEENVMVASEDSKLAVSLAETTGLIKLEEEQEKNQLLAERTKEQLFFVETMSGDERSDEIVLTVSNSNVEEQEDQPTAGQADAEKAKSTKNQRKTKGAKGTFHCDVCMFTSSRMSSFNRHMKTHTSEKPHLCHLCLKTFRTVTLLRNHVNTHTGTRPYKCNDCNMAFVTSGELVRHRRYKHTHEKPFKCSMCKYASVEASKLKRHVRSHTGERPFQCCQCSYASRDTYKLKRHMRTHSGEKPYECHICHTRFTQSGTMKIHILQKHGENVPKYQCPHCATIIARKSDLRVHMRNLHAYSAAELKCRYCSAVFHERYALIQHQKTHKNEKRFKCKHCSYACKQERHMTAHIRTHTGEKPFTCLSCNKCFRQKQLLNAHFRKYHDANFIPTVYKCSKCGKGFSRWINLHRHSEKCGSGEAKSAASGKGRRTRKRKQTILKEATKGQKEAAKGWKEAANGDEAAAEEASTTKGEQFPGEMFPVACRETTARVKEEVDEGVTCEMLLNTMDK
UniProt P01037: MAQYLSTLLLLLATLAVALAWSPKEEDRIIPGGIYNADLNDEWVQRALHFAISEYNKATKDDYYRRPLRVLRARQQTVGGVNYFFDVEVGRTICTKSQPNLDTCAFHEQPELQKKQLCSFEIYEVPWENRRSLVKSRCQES
UniProt Q9Y600: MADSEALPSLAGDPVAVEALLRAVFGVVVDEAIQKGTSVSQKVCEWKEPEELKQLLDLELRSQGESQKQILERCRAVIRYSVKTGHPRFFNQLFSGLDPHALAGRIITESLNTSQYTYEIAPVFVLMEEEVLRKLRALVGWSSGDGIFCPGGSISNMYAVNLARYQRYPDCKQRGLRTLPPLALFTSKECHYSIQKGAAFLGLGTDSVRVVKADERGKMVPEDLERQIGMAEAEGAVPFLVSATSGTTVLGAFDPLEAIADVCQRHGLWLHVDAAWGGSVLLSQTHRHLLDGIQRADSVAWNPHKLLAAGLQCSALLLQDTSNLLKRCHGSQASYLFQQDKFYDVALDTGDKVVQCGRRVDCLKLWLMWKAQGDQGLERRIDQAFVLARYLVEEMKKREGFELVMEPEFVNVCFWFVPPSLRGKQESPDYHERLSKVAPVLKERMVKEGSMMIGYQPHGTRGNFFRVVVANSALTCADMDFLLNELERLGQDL
UniProt Q9NSA3: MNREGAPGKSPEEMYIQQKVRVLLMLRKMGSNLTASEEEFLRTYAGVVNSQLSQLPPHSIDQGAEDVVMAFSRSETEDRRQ
UniProt Q9UJA2: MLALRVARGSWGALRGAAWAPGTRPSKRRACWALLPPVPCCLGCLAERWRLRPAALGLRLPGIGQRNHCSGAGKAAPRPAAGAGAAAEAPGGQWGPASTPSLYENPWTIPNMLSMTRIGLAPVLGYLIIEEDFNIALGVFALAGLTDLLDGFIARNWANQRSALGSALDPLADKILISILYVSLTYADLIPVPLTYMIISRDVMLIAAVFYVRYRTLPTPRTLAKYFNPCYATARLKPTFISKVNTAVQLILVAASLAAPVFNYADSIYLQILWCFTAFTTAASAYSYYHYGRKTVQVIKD
UniProt Q9GZU7: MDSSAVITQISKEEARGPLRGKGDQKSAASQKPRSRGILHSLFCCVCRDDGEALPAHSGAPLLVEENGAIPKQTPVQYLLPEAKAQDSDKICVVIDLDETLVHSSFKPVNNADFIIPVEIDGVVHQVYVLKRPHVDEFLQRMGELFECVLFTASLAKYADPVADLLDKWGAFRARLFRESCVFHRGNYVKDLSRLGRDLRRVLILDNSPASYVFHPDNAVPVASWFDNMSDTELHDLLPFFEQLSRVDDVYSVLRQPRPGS
UniProt Q9NQC7: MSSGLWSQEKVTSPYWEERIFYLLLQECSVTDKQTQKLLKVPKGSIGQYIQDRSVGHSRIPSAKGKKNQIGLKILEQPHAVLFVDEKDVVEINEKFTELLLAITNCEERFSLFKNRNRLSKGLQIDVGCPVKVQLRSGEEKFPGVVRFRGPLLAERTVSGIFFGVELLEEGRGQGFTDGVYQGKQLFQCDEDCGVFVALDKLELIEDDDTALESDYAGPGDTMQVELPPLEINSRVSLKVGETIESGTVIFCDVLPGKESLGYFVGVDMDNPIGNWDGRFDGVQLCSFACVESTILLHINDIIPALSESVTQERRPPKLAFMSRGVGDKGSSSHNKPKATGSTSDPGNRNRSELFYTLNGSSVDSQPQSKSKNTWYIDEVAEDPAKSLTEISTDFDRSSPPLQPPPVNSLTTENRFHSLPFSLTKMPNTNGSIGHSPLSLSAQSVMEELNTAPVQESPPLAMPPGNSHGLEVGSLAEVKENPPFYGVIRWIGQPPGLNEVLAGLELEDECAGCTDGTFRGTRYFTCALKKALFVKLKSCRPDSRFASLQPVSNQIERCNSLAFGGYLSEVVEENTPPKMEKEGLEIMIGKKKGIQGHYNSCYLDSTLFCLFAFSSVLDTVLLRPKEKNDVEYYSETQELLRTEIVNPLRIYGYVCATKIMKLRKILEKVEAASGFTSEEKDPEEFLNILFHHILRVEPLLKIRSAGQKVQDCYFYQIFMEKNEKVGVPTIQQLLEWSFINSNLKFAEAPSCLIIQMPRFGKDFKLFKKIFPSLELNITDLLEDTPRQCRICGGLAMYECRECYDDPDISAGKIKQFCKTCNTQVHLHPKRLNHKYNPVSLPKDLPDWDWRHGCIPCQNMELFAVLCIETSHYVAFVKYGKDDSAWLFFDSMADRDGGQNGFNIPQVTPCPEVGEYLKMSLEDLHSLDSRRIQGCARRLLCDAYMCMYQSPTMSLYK
UniProt P09603: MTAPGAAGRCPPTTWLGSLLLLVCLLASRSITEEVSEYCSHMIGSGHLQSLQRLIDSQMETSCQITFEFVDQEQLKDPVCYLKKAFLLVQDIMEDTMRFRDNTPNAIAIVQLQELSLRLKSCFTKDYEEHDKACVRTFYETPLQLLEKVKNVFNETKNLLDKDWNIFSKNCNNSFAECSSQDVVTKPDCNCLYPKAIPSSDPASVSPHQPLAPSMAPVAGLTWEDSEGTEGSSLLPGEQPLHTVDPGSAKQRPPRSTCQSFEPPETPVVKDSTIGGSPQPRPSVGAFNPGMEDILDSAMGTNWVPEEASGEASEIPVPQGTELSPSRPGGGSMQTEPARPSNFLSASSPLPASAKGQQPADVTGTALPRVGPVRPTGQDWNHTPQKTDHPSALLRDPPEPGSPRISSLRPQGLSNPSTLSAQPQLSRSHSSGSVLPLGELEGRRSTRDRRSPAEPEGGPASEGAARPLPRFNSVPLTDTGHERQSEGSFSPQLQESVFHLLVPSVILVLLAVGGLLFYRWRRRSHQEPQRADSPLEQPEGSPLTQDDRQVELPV

[2] = compound: CCn1cc(-c2ccnc3[nH]c(-c4cccc(CN(C)C)c4)cc23)c(-c2ccc(NC(=O)N(C)C)cc2)n1
Procedure, shortened: as §1

[3] = compound: CN1CCC(CNc2ccc3ncc(-c4cccc(OC(F)(F)F)c4)n3n2)CC1
Procedure, shortened: as §1

saracatinib = compound: CN1CCN(CCOc2cc(OC3CCOCC3)c3c(Nc4c(Cl)ccc5c4OCO5)ncnc3c2)CC1 [saracatinib]
Procedure, shortened: as §1

barasertib = compound: CCN(CCCOc1ccc2c(Nc3cc(CC(=O)Nc4cccc(F)c4)[nH]n3)ncnc2c1)CCOP(=O)(O)O [barasertib]
Procedure, shortened: as §1

[4] = compound: CC[C@@H]1C(=O)N(C)c2cnc(Nc3ccc(C(=O)NC4CCN(C)CC4)cc3OC)nc2N1C1CCCC1
Procedure, shortened: as §1

sotrastaurin = compound: CN1CCN(c2nc(C3=C(c4c[nH]c5ccccc45)C(=O)NC3=O)c3ccccc3n2)CC1 [sotrastaurin]
Procedure, shortened: as §1

[5] = compound: CCCS(=O)(=O)Nc1ccc(F)c(C(=O)c2c[nH]c3ncc(Cl)cc23)c1F
Procedure, shortened: as §1

volasertib = compound: CC[C@@H]1C(=O)N(C)c2cnc(Nc3ccc(C(=O)N[C@H]4CC[C@H](N5CCN(CC6CC6)CC5)CC4)cc3OC)nc2N1C(C)C [volasertib]
Procedure, shortened: as §1

Measured: log2 fold change

CRISP3 isoform 3 (UniProt P54108)
inactive: [1] 0.087 | [2] 0.21 | [3] -0.175 | saracatinib -0.25

CSRNP2 (UniProt Q9H175)
inactive: [1] 0.101 | saracatinib -0.049

CTCFL isoform 7 (UniProt Q8NI51)
inactive: barasertib 0.108 | [4] 0 | sotrastaurin -0.097

CST1 (UniProt P01037)
inactive: [4] -0.265 | [1] 0.13 | [2] 0.014 | [3] -0.059 | sotrastaurin -0.06

CSAD isoform 3 (UniProt Q9Y600)
active: barasertib 0.456
inactive: [1] 0.001 | sotrastaurin -0.003

CTNNBIP1 (UniProt Q9NSA3)
inactive: saracatinib -0.089

CRLS1 (UniProt Q9UJA2)
inactive: [5] 0.063 | barasertib 0.014 | volasertib 0.005 | [1] 0.017 | [2] 0.022 | [3] -0.301 | sotrastaurin -0.008

CTDSP1 (UniProt Q9GZU7)
inactive: [1] -0.002 | [2] 0.2 | [3] -0.091 | saracatinib 0.134 | sotrastaurin -0.008

CYLD (UniProt Q9NQC7)
inactive: sotrastaurin -0.061

Pulled one by one from the list above (2):
CTDSP1 (UniProt Q9GZU7)
inactive: [1] -0.002 | [2] 0.2 | [3] -0.091 | saracatinib 0.134 | sotrastaurin -0.008

CRISP3 isoform 3 (UniProt P54108)
inactive: [1] 0.087 | [2] 0.21 | [3] -0.175 | saracatinib -0.25

Next entries follow.

CSF1 (UniProt P09603)
inactive: [2] -0.078 | [3] -0.03
